{
  "sequences": {"note": "The chains behind the UniProt entries cited, without tags or fusion partners. Where a name states a change or a piece, a line headed by the entry shows the natural chain unless it says otherwise. Residues count along the entry.", "UniProt P38647, residues 47-679": "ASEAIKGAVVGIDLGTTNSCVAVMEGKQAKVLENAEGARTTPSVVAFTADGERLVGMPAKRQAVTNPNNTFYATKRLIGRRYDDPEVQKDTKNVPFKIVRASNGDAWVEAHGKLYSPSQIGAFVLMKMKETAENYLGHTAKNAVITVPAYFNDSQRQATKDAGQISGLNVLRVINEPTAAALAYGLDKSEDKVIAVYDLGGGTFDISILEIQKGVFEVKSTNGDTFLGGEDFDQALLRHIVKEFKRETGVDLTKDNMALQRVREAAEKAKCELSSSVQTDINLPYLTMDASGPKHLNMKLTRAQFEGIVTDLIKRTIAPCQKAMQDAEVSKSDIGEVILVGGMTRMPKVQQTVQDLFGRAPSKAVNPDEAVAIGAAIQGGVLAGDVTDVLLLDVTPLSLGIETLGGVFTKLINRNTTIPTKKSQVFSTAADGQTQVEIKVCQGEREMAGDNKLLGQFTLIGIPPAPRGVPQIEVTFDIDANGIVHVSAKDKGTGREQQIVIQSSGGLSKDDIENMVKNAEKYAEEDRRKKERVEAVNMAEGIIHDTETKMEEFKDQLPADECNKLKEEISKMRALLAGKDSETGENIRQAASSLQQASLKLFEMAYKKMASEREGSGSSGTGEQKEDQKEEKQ", "UniProt Q60932": "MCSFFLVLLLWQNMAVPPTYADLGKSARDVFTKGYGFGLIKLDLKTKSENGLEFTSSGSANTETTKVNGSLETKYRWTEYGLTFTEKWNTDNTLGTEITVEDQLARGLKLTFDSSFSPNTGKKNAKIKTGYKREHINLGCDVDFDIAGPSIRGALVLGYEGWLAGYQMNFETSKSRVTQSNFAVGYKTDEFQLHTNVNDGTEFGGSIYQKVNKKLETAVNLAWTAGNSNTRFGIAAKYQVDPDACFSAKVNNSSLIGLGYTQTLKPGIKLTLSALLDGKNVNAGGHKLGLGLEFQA"},
  "source": "paper PMC6003198",
  "molecular_target": "glucose-regulated protein 75 (mouse (endogenous in cultured mouse podocytes)) (UniProt P38647)",
  "assay": "co-IP; anti-Grp75 antibody (D13H4) immobilised on AminoLink Plus Coupling Resin, incubated overnight with lysates of cultured mouse podocytes (control, ADR-treated or Ang II-treated); eluate analysed by western blotting; normal rabbit IgG as negative control",
  "note": "No constants are given. Whether binding was seen depends on the method and setting. In cells and extracts the contact can be indirect. Binding calls can cover weak binding; strength is not graded here.",
  "data": [
    {"substance": "voltage-dependent anion channel 1 (from UniProt Q60932)", "values": [
      {"measurement": "binding", "result": "binds"}
    ]}
  ]
}
